Some of the results follow. Most values lie at the level of the controls, where differences are scatter.

Protein sequences, listed by entry. Tags and fused reporters are not part of them. Lines headed by an entry give the natural chain unless they say otherwise; changes in a name come on top.
UniProt O08734: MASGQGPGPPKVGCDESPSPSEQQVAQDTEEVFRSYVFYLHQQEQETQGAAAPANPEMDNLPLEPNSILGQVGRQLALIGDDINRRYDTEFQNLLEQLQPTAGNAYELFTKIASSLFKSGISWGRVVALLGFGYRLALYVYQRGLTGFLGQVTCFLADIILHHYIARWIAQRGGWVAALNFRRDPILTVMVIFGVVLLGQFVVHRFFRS
UniProt O70200: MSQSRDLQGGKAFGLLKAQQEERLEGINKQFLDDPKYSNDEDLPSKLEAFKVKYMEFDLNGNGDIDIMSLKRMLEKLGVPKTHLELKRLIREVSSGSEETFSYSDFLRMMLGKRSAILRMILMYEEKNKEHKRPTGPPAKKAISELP
UniProt O08573: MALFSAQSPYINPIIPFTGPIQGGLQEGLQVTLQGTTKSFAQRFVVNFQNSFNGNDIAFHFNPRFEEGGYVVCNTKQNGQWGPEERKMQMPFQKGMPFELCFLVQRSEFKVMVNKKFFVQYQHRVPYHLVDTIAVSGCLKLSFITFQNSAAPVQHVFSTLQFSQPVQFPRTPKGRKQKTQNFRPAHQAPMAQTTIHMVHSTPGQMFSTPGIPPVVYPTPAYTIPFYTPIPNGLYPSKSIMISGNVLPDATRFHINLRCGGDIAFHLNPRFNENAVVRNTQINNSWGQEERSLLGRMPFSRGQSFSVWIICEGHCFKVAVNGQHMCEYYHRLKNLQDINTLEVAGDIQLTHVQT
UniProt P01630, whole entry: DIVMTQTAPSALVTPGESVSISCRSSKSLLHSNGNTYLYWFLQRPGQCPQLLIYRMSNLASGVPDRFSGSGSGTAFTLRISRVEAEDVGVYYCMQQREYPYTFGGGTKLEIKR
UniProt O08915: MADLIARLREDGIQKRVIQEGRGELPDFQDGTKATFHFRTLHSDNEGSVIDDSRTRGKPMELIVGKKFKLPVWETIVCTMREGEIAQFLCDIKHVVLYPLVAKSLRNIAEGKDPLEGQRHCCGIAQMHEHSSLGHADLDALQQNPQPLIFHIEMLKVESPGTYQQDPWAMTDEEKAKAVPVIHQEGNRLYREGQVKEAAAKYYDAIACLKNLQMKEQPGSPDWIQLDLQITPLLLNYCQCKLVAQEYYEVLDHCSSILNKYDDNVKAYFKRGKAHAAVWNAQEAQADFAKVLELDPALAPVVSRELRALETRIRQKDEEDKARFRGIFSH
UniProt G5E870: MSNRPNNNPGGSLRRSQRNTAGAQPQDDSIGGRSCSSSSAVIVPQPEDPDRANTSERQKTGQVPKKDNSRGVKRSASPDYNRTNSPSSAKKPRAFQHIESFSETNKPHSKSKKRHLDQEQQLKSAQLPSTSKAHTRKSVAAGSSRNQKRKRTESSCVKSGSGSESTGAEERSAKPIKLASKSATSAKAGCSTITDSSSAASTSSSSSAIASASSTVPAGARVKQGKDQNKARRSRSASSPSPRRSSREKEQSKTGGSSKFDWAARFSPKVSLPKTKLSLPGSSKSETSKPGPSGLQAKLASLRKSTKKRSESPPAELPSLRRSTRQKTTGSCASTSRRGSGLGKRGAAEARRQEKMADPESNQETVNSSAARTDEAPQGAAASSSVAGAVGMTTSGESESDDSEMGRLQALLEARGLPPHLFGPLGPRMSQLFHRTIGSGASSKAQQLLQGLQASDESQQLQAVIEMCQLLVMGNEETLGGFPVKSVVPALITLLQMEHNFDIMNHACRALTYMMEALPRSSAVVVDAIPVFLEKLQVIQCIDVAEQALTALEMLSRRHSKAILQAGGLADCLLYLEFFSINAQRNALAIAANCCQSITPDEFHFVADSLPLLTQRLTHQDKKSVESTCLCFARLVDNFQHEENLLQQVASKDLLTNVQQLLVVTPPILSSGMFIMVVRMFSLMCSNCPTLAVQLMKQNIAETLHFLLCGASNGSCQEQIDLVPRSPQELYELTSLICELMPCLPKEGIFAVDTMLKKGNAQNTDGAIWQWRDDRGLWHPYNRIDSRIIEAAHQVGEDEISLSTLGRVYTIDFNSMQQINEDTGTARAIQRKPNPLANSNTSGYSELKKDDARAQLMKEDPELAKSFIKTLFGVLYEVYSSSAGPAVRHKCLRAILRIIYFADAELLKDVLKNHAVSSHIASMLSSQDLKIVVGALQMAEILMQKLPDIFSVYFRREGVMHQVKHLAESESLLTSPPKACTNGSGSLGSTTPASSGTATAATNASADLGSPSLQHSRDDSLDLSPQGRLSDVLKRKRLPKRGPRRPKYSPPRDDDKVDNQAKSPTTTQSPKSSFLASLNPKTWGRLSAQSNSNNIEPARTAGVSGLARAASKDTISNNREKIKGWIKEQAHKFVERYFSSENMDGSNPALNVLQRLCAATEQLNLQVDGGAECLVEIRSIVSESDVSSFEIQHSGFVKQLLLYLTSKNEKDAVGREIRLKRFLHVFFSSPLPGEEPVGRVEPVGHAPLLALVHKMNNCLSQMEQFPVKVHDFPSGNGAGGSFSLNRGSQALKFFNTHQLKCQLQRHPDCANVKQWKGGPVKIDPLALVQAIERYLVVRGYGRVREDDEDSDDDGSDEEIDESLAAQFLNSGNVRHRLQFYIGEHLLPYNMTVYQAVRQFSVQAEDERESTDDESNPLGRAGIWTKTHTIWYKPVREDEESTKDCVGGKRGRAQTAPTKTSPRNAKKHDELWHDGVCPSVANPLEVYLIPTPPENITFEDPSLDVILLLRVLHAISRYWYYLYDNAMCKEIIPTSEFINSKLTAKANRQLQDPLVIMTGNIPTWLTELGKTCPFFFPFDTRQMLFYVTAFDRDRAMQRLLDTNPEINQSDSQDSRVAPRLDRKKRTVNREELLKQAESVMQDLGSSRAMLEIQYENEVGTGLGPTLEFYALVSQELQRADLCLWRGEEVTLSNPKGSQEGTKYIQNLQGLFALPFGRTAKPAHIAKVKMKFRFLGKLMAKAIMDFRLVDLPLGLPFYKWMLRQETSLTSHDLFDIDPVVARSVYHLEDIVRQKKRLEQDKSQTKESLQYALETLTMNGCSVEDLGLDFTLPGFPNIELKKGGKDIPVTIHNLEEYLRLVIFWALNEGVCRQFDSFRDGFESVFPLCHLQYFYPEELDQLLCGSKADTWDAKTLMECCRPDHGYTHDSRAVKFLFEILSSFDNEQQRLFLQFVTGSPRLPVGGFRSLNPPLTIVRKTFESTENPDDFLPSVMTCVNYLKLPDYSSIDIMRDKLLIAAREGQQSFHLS
UniProt O35887: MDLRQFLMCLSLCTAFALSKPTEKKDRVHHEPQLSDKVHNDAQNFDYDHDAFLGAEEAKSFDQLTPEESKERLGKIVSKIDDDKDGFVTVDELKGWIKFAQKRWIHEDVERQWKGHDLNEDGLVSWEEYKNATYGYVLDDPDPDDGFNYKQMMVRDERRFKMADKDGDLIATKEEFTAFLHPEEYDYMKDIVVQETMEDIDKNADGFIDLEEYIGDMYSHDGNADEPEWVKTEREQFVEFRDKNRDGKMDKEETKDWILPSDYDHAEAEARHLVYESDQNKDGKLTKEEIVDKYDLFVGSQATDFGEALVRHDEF
UniProt O54931: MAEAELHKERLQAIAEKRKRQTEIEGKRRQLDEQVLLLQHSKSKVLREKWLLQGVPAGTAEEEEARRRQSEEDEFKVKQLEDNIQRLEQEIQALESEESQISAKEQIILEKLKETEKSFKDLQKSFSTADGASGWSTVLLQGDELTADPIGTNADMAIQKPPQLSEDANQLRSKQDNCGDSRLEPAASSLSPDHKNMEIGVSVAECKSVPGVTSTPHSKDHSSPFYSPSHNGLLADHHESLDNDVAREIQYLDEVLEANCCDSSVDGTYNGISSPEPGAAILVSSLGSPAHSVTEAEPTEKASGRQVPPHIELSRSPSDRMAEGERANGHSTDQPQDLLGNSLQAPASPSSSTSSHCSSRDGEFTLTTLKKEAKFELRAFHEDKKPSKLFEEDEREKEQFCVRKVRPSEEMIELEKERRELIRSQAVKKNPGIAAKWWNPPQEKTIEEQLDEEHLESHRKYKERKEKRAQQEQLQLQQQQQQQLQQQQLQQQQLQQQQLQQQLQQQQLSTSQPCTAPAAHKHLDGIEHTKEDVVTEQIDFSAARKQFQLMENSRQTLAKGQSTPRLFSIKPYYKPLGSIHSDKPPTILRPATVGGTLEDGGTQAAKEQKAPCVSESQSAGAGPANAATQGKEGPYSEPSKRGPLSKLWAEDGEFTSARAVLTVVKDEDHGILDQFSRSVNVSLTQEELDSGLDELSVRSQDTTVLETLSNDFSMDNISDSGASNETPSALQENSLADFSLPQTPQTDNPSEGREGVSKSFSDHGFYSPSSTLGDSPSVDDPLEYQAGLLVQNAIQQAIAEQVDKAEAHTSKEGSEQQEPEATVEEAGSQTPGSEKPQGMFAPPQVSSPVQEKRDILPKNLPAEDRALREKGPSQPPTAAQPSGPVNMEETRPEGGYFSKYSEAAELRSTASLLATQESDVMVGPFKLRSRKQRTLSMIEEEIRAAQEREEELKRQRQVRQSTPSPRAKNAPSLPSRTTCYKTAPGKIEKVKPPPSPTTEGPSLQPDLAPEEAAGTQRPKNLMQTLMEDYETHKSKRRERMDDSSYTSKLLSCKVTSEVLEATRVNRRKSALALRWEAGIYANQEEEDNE
UniProt O08692: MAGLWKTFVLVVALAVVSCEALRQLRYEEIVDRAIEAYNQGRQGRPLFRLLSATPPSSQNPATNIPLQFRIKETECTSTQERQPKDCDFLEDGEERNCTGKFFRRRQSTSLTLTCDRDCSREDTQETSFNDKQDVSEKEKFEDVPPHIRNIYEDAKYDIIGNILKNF
UniProt O35955: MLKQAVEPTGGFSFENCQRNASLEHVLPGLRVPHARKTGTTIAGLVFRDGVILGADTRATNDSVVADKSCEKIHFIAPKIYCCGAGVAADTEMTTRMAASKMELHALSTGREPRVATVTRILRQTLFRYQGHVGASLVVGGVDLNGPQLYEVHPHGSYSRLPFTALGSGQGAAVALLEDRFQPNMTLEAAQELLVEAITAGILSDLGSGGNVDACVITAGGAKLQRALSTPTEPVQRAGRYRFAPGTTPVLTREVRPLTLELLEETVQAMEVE
UniProt G5E8V9: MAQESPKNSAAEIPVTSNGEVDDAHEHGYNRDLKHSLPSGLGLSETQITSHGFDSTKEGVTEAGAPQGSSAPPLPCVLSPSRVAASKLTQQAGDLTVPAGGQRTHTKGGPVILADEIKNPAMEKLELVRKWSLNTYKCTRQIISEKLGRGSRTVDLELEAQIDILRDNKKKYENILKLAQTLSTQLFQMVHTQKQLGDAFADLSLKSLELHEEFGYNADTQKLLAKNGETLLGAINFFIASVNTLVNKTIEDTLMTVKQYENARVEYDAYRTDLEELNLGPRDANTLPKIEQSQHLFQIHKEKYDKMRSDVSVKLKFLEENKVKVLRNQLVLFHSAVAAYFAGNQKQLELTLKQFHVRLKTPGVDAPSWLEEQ
UniProt O08600: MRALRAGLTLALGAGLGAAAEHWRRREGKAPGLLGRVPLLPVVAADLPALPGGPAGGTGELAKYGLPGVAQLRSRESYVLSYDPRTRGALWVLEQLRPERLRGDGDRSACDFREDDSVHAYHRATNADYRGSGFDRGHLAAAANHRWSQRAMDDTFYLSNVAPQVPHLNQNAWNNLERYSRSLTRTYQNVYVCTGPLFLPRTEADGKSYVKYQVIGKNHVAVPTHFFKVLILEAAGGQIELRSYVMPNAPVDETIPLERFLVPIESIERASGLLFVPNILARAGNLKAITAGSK
UniProt O55029: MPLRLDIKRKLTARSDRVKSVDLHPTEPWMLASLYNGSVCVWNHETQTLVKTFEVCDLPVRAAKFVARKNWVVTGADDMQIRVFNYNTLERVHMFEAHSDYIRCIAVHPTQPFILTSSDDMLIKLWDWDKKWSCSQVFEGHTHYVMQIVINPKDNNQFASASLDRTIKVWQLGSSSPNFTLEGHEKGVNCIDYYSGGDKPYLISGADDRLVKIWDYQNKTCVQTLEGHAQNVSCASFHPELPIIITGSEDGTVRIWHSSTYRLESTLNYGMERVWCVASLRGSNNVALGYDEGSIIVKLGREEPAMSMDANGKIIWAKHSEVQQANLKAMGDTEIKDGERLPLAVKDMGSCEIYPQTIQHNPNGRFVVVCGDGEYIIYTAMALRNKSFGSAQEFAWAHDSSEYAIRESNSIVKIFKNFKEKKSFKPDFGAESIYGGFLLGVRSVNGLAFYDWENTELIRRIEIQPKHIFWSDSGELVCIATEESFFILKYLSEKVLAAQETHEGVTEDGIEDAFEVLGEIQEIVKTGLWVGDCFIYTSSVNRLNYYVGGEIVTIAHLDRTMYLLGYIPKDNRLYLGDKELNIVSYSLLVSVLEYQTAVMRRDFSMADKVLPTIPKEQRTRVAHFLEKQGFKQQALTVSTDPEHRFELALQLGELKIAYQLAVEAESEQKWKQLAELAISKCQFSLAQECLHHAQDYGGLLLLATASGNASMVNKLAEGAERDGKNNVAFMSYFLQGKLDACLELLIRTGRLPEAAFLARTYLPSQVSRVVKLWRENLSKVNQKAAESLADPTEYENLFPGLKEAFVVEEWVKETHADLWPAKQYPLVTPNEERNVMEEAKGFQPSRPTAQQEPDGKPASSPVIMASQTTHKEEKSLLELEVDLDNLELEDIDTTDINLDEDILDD

Compound in this assay: CN[C@@H]1C[C@H]2O[C@@](C)([C@@H]1OC)n1c3ccccc3c3c4c(c5c6ccccc6n2c5c31)C(=O)NC4 [staurosporine]
Nature of the assay: log2 fold change of pooled soluble protein (PISA), ligand vs vehicle (log2 ratio); higher = more thermally stabilized. The following applies: ligand concentration: 20 uM; assay format: PISA pool 52.9/55.5/58.6 C.
Regarding UniProt O70475, the “log2 fold change of pooled soluble protein” value (shortened to “log2 fold change”) was -0.0451. With UniProt O09000 the figure was -0.0733; with UniProt O88829, -0.000194. With UniProt O09061 the figure was -0.00364; with UniProt O08734, -0.0127; with UniProt O70200, 0.0195. With UniProt O70194 the figure was -0.0348; with UniProt O88342, 0.0171; with UniProt O35632, 0.0984. With UniProt O35309, the “log2 fold change” value was 0.0339. For UniProt O08573 the value was 0.152; for UniProt P01630, -0.125; for UniProt O08915, -0.229.

As to UniProt O08579, the “log2 fold change” value was -0.0112. For UniProt G5E870 the value was -0.0159; for UniProt O35887, 0.166. For Q8BR92 (UniProt O54931) the value was 0.0793; for UniProt O08692, 0.155; for UniProt O08585, 0.0423. For UniProt O35678 the value was -0.233. Regarding UniProt O09131, the “log2 fold change” value is 0.0615. For UniProt O35955 the value was -0.104; for UniProt O54940, 0.339. Regarding UniProt O35465, the “log2 fold change” value is -0.224.

Take UniProt O35943: the “log2 fold change” value is 0.0974. With UniProt G5E8V9 the figure was 0.0953.

On to UniProt O55142, for which the “log2 fold change” value is -0.213.

Turning to UniProt O88455, the “log2 fold change” value turned out to be 0.0735. For UniProt O08600 the value was -0.2; for UniProt O70318, -0.0659. With UniProt O89020, the “log2 fold change” value was -0.0801. For UniProt O35660 the value was 0.00568; for UniProt P00920, -0.0257; for UniProt O70279, 0.328. With UniProt O70591 the figure was -0.0509; with UniProt O55029, -0.01. For UniProt O09012 the value was -0.33.

For the origin of these results see the supplement of paper PMC12819154, “High-throughput peptide-centric local stability assay extends protein–ligand identification to membrane proteins, tissues and bacteria” (Nature Structural & Molecular Biology, 2025).
